# Measured values taken from the supplement of paper PMC5407854, “Inhibitor of ppGalNAc-T3-mediated O-glycosylation blocks cancer cell invasiveness and lowers FGF23 levels” (eLife, 2017).
# The other results are listed elsewhere or left out. Most values lie at the level of the controls, where differences are scatter.
# Assays:
# ppGalNAc-T3 sensor = experiment: T3 sensor activation Q score (MG/GFP ratio z-score vs DMSO controls) (SD units); higher = more sensor activation (inhibition of ppGalNAc-T3 glycosylation); details: HEK293 sensor cells; 10 µM; 6 h
# Procedure: (§1)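 Cells were treated with compound at 10 uM for 6 h, then MG/GFP ratio was read by flow cytometry (10,000 cells per well, duplicate wells). Q = (R - R_neg)/SD_neg relative to DMSO vehicle controls; the signal rises when the glycosyltransferase is inhibited.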
# ppGalNAc-T2 sensor = experiment: T2 sensor activation Q score (MG/GFP ratio z-score vs DMSO controls) (SD units); higher = more sensor activation (inhibition of ppGalNAc-T2 glycosylation); details: HEK293 sensor cells; 10 µM; 6 h
# Procedure: as §1
smiles,measurement,setting,value
CCCN(CCC)S(=O)(=O)c1ccc(C(=O)N2CCN(C)CC2)cc1,T3 sensor activation Q score,ppGalNAc-T3 sensor,0.65
same,T2 sensor activation Q score,ppGalNAc-T2 sensor,-0.35
O=C(O)c1cc(S(=O)(=O)N2CCCCC2)ccc1Br,T3 sensor activation Q score,ppGalNAc-T3 sensor,0.05
same,T2 sensor activation Q score,ppGalNAc-T2 sensor,-0.69
O=S(=O)(Cc1ccccc1)N1CCN(c2cccc(Cl)c2)CC1,T3 sensor activation Q score,ppGalNAc-T3 sensor,0.63
same,T2 sensor activation Q score,ppGalNAc-T2 sensor,-0.33
CN1CCCN(Cc2ccc(F)cc2F)CC1,T3 sensor activation Q score,ppGalNAc-T3 sensor,-0.07
same,T2 sensor activation Q score,ppGalNAc-T2 sensor,0.065
CN1C(=O)C(=O)C(=C(O)c2ccccc2)C1c1ccccc1 (stereo not drawn),T3 sensor activation Q score,ppGalNAc-T3 sensor,0.4
same,T2 sensor activation Q score,ppGalNAc-T2 sensor,-0.53
COc1ccc(C(=O)c2ccc(Br)cc2)cc1,T3 sensor activation Q score,ppGalNAc-T3 sensor,0.42
same,T2 sensor activation Q score,ppGalNAc-T2 sensor,-0.95
CCOc1ccccc1CN1CCN(c2ccccn2)CC1,T3 sensor activation Q score,ppGalNAc-T3 sensor,-0.425
same,T2 sensor activation Q score,ppGalNAc-T2 sensor,-0.19
CC1CCCN(CC(O)COCc2ccc(Cl)cc2)C1 (stereo not drawn),T3 sensor activation Q score,ppGalNAc-T3 sensor,-0.425
same,T2 sensor activation Q score,ppGalNAc-T2 sensor,-0.185
O=C(O)Cn1cc(Br)c(=O)[nH]c1=O,T3 sensor activation Q score,ppGalNAc-T3 sensor,0.705
same,T2 sensor activation Q score,ppGalNAc-T2 sensor,-0.64
Cc1ccc(NS(=O)(=O)c2ccc(Cl)cc2)c(C)c1,T3 sensor activation Q score,ppGalNAc-T3 sensor,0.24
same,T2 sensor activation Q score,ppGalNAc-T2 sensor,-0.93
O=c1[nH]c(-c2ccccc2O)nc2ccccc12,T3 sensor activation Q score,ppGalNAc-T3 sensor,2
same,T2 sensor activation Q score,ppGalNAc-T2 sensor,0.82
O=[N+]([O-])C1=C(Nc2ccccc2)CS(=O)(=O)C1,T3 sensor activation Q score,ppGalNAc-T3 sensor,0.24
same,T2 sensor activation Q score,ppGalNAc-T2 sensor,-0.835
CCCCOc1ccc(CN2CCC(O)CC2)cc1,T3 sensor activation Q score,ppGalNAc-T3 sensor,0.27
same,T2 sensor activation Q score,ppGalNAc-T2 sensor,0.21
Cc1ccn2c(-c3csc(Nc4ccc(N)cc4)n3)c(C)nc2c1,T3 sensor activation Q score,ppGalNAc-T3 sensor,-1.04
same,T2 sensor activation Q score,ppGalNAc-T2 sensor,-0.035
OCCOc1ccccc1OCCO,T3 sensor activation Q score,ppGalNAc-T3 sensor,0.34
same,T2 sensor activation Q score,ppGalNAc-T2 sensor,0.605
O=[N+]([O-])c1ccc(-c2cnc3ccccc3n2)cc1,T3 sensor activation Q score,ppGalNAc-T3 sensor,0.17
same,T2 sensor activation Q score,ppGalNAc-T2 sensor,0.055
Cc1cccc(C(=O)Nc2ccccc2C(N)=O)c1,T3 sensor activation Q score,ppGalNAc-T3 sensor,-0.16
same,T2 sensor activation Q score,ppGalNAc-T2 sensor,-0.185
O=[N+]([O-])c1ccccc1/C=C/CN1CCN(c2ccccc2)CC1,T3 sensor activation Q score,ppGalNAc-T3 sensor,0.58
same,T2 sensor activation Q score,ppGalNAc-T2 sensor,-0.86
O=C(Nc1ccc(Cl)cc1)N1CCc2ccccc21,T3 sensor activation Q score,ppGalNAc-T3 sensor,0.545
same,T2 sensor activation Q score,ppGalNAc-T2 sensor,0.31
O=C(O)c1ccccc1C(=O)c1ccc(F)c(F)c1,T3 sensor activation Q score,ppGalNAc-T3 sensor,-0.465
same,T2 sensor activation Q score,ppGalNAc-T2 sensor,0.82
CCCN(CCO)Cc1c(Cl)cccc1Cl,T3 sensor activation Q score,ppGalNAc-T3 sensor,1.77
same,T2 sensor activation Q score,ppGalNAc-T2 sensor,0.545
COc1ccc(C2C(C(C)=O)=C(O)C(=O)N2C)cc1 (stereo not drawn),T3 sensor activation Q score,ppGalNAc-T3 sensor,0.315
same,T2 sensor activation Q score,ppGalNAc-T2 sensor,-0.305
Cc1ccc(NCc2ccc([N+](=O)[O-])s2)cc1,T3 sensor activation Q score,ppGalNAc-T3 sensor,-0.11
same,T2 sensor activation Q score,ppGalNAc-T2 sensor,0.805
CCN(CC)CC#CC(O)c1ccccc1 (stereo not drawn),T3 sensor activation Q score,ppGalNAc-T3 sensor,-0.045
same,T2 sensor activation Q score,ppGalNAc-T2 sensor,-1.54
CC(C)N(C(=O)Nc1cccc(Cl)c1)C(C)C,T3 sensor activation Q score,ppGalNAc-T3 sensor,-0.085
same,T2 sensor activation Q score,ppGalNAc-T2 sensor,-0.3
CNC(=O)c1c(O)c2ccccc2[nH]c1=O,T3 sensor activation Q score,ppGalNAc-T3 sensor,0.145
same,T2 sensor activation Q score,ppGalNAc-T2 sensor,1.41
CC1CC(Nc2ccccc2)c2ccccc2N1C(=O)Cc1ccccc1 (stereo not drawn),T3 sensor activation Q score,ppGalNAc-T3 sensor,-0.88
same,T2 sensor activation Q score,ppGalNAc-T2 sensor,-1.56
CCC(CC)C(=O)N1CCN(c2ccc([N+](=O)[O-])cc2)CC1,T3 sensor activation Q score,ppGalNAc-T3 sensor,-0.445
same,T2 sensor activation Q score,ppGalNAc-T2 sensor,0.345
CN1CCCN(Cc2ccc(Cl)c(Cl)c2)CC1,T3 sensor activation Q score,ppGalNAc-T3 sensor,0.315
same,T2 sensor activation Q score,ppGalNAc-T2 sensor,1.21
O=C1C=C(Nc2ccccc2F)CC(c2ccccc2)C1 (stereo not drawn),T3 sensor activation Q score,ppGalNAc-T3 sensor,-0.385
same,T2 sensor activation Q score,ppGalNAc-T2 sensor,0.19
O=S(=O)(c1ccccc1)N1CCN(Cc2ccccc2F)CC1,T3 sensor activation Q score,ppGalNAc-T3 sensor,-0.505
same,T2 sensor activation Q score,ppGalNAc-T2 sensor,-0.875
COc1nc(Nc2ccc(I)cc2)nc(OC)n1,T3 sensor activation Q score,ppGalNAc-T3 sensor,-0.03
same,T2 sensor activation Q score,ppGalNAc-T2 sensor,0.505
CC(C)=CC(=O)CC(O)(c1ccccc1)C(F)(F)C(F)F (stereo not drawn),T3 sensor activation Q score,ppGalNAc-T3 sensor,0.315
same,T2 sensor activation Q score,ppGalNAc-T2 sensor,0.42
COc1ccc(CNCc2ccc(OC)cc2)cc1,T3 sensor activation Q score,ppGalNAc-T3 sensor,-0.28
same,T2 sensor activation Q score,ppGalNAc-T2 sensor,1.74
Clc1ccc(CN2CCOCC2)cc1Cl,T3 sensor activation Q score,ppGalNAc-T3 sensor,-0.085
same,T2 sensor activation Q score,ppGalNAc-T2 sensor,-0.855
NC(=O)N1CCN(C(=O)c2ccco2)CC1,T3 sensor activation Q score,ppGalNAc-T3 sensor,0.5
same,T2 sensor activation Q score,ppGalNAc-T2 sensor,-0.24
COc1cc2sc3ccccc3c(=O)c2cc1OC,T3 sensor activation Q score,ppGalNAc-T3 sensor,0.57
same,T2 sensor activation Q score,ppGalNAc-T2 sensor,-0.585
Nc1ccccc1-c1nc2ccccc2[nH]1,T3 sensor activation Q score,ppGalNAc-T3 sensor,0.6
same,T2 sensor activation Q score,ppGalNAc-T2 sensor,-0.36
CCCOc1ccc(C(=O)N2CCCCC2)cc1OC,T3 sensor activation Q score,ppGalNAc-T3 sensor,0.26
same,T2 sensor activation Q score,ppGalNAc-T2 sensor,0.375
COc1ccc(OC)c(S(=O)(=O)c2ccc(Br)cc2)c1,T3 sensor activation Q score,ppGalNAc-T3 sensor,0
same,T2 sensor activation Q score,ppGalNAc-T2 sensor,0.785
CCOC(=O)Nc1ccc(C(C)CC)cc1 (stereo not drawn),T3 sensor activation Q score,ppGalNAc-T3 sensor,-0.28
same,T2 sensor activation Q score,ppGalNAc-T2 sensor,-0.545
CC(C)c1ccc(CN2CCCN(C)CC2)cc1,T3 sensor activation Q score,ppGalNAc-T3 sensor,1.07
same,T2 sensor activation Q score,ppGalNAc-T2 sensor,-0.325
COc1ccc(CNC2CCCCC2C)cc1 (stereo not drawn),T3 sensor activation Q score,ppGalNAc-T3 sensor,0.775
same,T2 sensor activation Q score,ppGalNAc-T2 sensor,0.61
NC(=O)CNC(=O)c1ccccc1,T3 sensor activation Q score,ppGalNAc-T3 sensor,-0.96
same,T2 sensor activation Q score,ppGalNAc-T2 sensor,-1.82
CCOc1ccccc1NC(=O)c1ccccc1C,T3 sensor activation Q score,ppGalNAc-T3 sensor,1.49
same,T2 sensor activation Q score,ppGalNAc-T2 sensor,-1.01
COc1ccc(-c2noc(-c3cccc(OC)c3)n2)cc1,T3 sensor activation Q score,ppGalNAc-T3 sensor,0.765
same,T2 sensor activation Q score,ppGalNAc-T2 sensor,0.665
O=c1[nH]c2cccnc2n1-c1ccccc1,T3 sensor activation Q score,ppGalNAc-T3 sensor,-0.33
same,T2 sensor activation Q score,ppGalNAc-T2 sensor,-0.575
C=CCn1c(SC(C)CC)nc(O)cc1=O (stereo not drawn),T3 sensor activation Q score,ppGalNAc-T3 sensor,0.675
same,T2 sensor activation Q score,ppGalNAc-T2 sensor,0.245
CC(=O)NC(CC(=O)c1ccc(Cl)cc1Cl)C(Cl)(Cl)Cl (stereo not drawn),T3 sensor activation Q score,ppGalNAc-T3 sensor,-0.345
same,T2 sensor activation Q score,ppGalNAc-T2 sensor,0.35

# Looked up one by one from the entries so far:
smiles,measurement,setting,value
Clc1ccc(CN2CCOCC2)cc1Cl,T2 sensor activation Q score,ppGalNAc-T2 sensor,-0.855
Cc1ccc(NCc2ccc([N+](=O)[O-])s2)cc1,T2 sensor activation Q score,ppGalNAc-T2 sensor,0.805
CN1C(=O)C(=O)C(=C(O)c2ccccc2)C1c1ccccc1 (stereo not drawn),T3 sensor activation Q score,ppGalNAc-T3 sensor,0.4
O=c1[nH]c2cccnc2n1-c1ccccc1,T3 sensor activation Q score,ppGalNAc-T3 sensor,-0.33
O=C(O)c1cc(S(=O)(=O)N2CCCCC2)ccc1Br,T2 sensor activation Q score,ppGalNAc-T2 sensor,-0.69
CCCOc1ccc(C(=O)N2CCCCC2)cc1OC,T3 sensor activation Q score,ppGalNAc-T3 sensor,0.26
